The record followed here is PubChem BioAssay AID493014 (National Center for Advancing Translational Sciences (NCATS), 2011).

This test can be described thus: qHTS Assay to Find Inhibitors of Chronic Active B-Cell Receptor Signaling. To be noted: ABC-DLBCL IkBa-CBG/CBR reporter, luminescence ratio (green luciferase fused to IkBa over red control in TMD8 lymphoma cells), 4 h. A digest of the protocol: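 Doxycycline induced both beetle luciferases in TMD8 lymphoma cells; IKK-driven degradation limits the IkappaBalpha-fused green signal, while red luminescence normalises for cell number and nonspecific effects. Compounds tested up to 46 uM, 4 hrs.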
On the technique in general: In qHTS, concentration-response curves come from the screen itself.

Where [1] appears, read: measured here: CBR red luminescence, cell number.
The mark [2] stands for this setting: measured here: IkBa-CBG green luminescence.

Molecules are shown by their SMILES. The list shows a part of the results. The main result of the screen is listed elsewhere. These columns were measured beside it and carry no call. Most of these compounds were active or inconclusive in the main read-out, so they are no random draw. Words in brackets tell the shape of the fitted curve; partial curves, single points and poor fits give uncertain potencies.

A word on the AC50: it is the concentration giving half of the maximal activity seen. `Cc1noc(C)c1S(=O)(=O)N(C)C[C@H]1Oc2ccc(NS(=O)(=O)c3cn(C)cn3)cc2C(=O)N([C@H](C)CO)C[C@@H]1C`: the AC50 under setting [1] is 4.61 µM [rising, single point].

With `CCC(C)NC(=O)c1cc(Cl)c(NC(=O)C2=C(C)OCCS2)cc1OC` (stereo not given), under setting [1], the AC50 is 0.224 µM [rising, full curve, poor fit].

For the compound `CCCC(=O)Nc1ccc(C#Cc2ccccc2)cc1`, the AC50 under setting [1] is 4.47 µM [rising, partial curve].

As to `C=CCN(CC=C)C(=S)NCCc1ccc(OC)c(OC)c1`, the AC50 under setting [1] is 0.82 µM [rising, partial curve, poor fit].

Turning to `CN(C1CCCCC1)S(=O)(=O)c1ccc(S(=O)(=O)N2CCN(C(=O)c3ccccc3F)CC2)cc1`, under setting [1], the AC50 was 2.59 µM [rising, full curve].

`CCCNC(=O)c1cccc(COc2ccccc2OC)c1`: the AC50 under setting [1] was 20 µM [falling, single point].

On to `COc1ccc(/C=N/NC(=O)c2ccc3c(c2)OCO3)c(C(=O)O)c1OC`, for which the AC50 under setting [1] is 20 µM [falling, partial curve, poor fit].

Take `CCOC(=O)[C@@H]1[C@H]2COc3ccccc3[C@H]2N2C(=O)N(c3cccc(Cl)c3)C(=O)[C@@]12C`: the AC50 under setting [1] is 11.2 µM [falling, partial curve, poor fit].

Consider `CCCCC(=O)N1C/C=C\C(c2ccc(OC)cc2)N(Cc2ccc(F)cc2)C(=O)[C@H]1Cc1ccccc1` (stereo not given in full), for which, under setting [1], the AC50 was 7.94 µM [falling, partial curve, poor fit].

Regarding `N#Cc1cccnc1N1CCN(C(=O)c2cccc3c2C(=O)c2ccc(-c4ccc(F)cc4OCc4ccccc4)cc2S3(=O)=O)CC1`, under setting [1], the AC50 is 2.91 µM [rising, partial curve, poor fit].

With `O=C(CCN1C(=O)C2CCCCC2C1=O)Nc1ccc(Br)cc1F` (stereo not given), the AC50 under setting [1] is 32.6 µM [rising, partial curve, poor fit].

As to `COc1ccc(C(=O)CNc2ccc3ccccc3c2)cc1`, under setting [1], the AC50 is 22.4 µM [falling, single point].

Turning to `CCn1c(SCC(=O)N/N=C/C=C\c2ccccc2[N+](=O)[O-])nc2ccccc21`, the AC50 under setting [1] is 32.6 µM [falling, single point].

As for `O=C(COC(=O)c1ccc(O)cc1)Nc1ccc(S(=O)(=O)N2CCCC2)cc1`, the AC50 under setting [1] is 29.1 µM [falling, single point].

As to `CCN(CC)CCCNC(=O)c1cc2c(=O)n(C)c3ccccc3c2n1C`, the AC50 under setting [1] was 5.8 µM [falling, partial curve, poor fit].

As to `O=c1c2cc(Cl)ccc2nc(-c2ccc(Cl)c(Cl)c2)n1O`, under setting [1], the AC50 is 1.58 µM [falling, full curve].

As to `O=C(Cn1cnc2ccccc21)c1ccc(Br)cc1`, under setting [1], the AC50 was 17.8 µM [rising, single point].

For `CCOC(=O)CCCCC(=O)c1[nH]c(=O)[nH]c1CSc1nc(C)cc(C)n1`, the AC50 under setting [1] is 8.91 µM [rising, partial curve, poor fit].

In the case of `COc1ccc(C(=O)Nc2ccc(-n3nncc3-c3ccc(OC)c(OC)c3)cc2)cc1`, the AC50 under setting [2] was 6.31 µM [falling, partial curve].

In the case of `COc1ccc(NC(=O)CNC(=O)c2ccco2)cc1`, under setting [1], the AC50 is 17.8 µM [rising, partial curve, poor fit].

With `COc1ccccc1NC(=O)c1ccc([N+](=O)[O-])cc1[N+](=O)[O-]`, the AC50 under setting [1] was 12.6 µM [falling, partial curve].

With `CCN(C(=O)COC(=O)c1cc2ccccc2cc1O)C1CCS(=O)(=O)C1` (stereo not given), the AC50 under setting [1] was 12.6 µM [falling, partial curve, poor fit].

In the case of `CC(C)N(C(=O)CSc1nc2ccccc2c(=O)[nH]1)C(C)C`, the AC50 under setting [1] is 0.447 µM [falling, full curve, poor fit].

Take `O=C(Cc1ccccc1)N1CCCC(c2nc(-c3ccc(S(=O)(=O)N4CCCC4)cc3)no2)C1` (stereo not given): the AC50 under setting [1] was 29.1 µM [rising, single point].

For the compound `CC(=O)CSc1ncnc2c1cnn2-c1ccccc1`, the AC50 under setting [1] was 11.2 µM [falling, single point].

For `COc1cc(O)c(C(CCN2CCCCC2)c2ccc(N(C)C)cc2)c(OC)c1` (stereo not given), the AC50 under setting [1] was 0.631 µM [rising, partial curve, poor fit].

As to `Cc1ccsc1C(=O)OCC(=O)NCCC1=CCCCC1`, the AC50 under setting [1] was 0.651 µM [rising, full curve].

Take `CCc1cccc2cc3c(N)c(C(=O)Nc4ccc(S(=O)(=O)N5CCCC5)cc4)sc3nc12`: the AC50 under setting [1] is 16.4 µM [rising, partial curve].

Consider `CCc1c(C)c(C#N)c2nc3ccccc3n2c1NC`, for which the AC50 under setting [1] was 22.4 µM [rising, partial curve, poor fit].

Take `O=C(Nc1ccccn1)c1ccc(NC(=O)c2ccco2)cc1`: the AC50 under setting [1] was 22.4 µM [falling, single point].

Take `O=C(/C=C/c1ccc(Br)cc1)NC1CCCCCC1`: under setting [1], the AC50 was 3.55 µM [falling, full curve].

For the compound `Cc1nn(C(C)C(=O)NCCc2ccco2)c(=O)c2nn(-c3ccccc3)c(C)c12` (stereo not given), the half-maximal activity concentration (AC50) under setting [1] is 28.2 µM [rising, single point].

Consider `COC(=O)[C@@]1(Cc2ccc(OC)cc2)[C@@H]2C(=CC(=O)[C@H]2CC(=O)C(=O)N(C)C)CN1C(=O)c1ccccc1`, for which the AC50 is 10.3 µM [falling, partial curve, poor fit] under setting [1] and 16.4 µM [falling, single point] under setting [2].

`C[C@@H](NC(=O)c1[nH]cnc1C(=O)Nc1ccccc1)c1ccccc1`: the AC50 under setting [1] is 3.66 µM [falling, full curve].

On to `O=c1[nH]c(CN2CCc3ccccc3C2)nc2ccccc12`, for which, under setting [1], the AC50 was 29.1 µM [falling, single point].

With `CCC(=O)NC1CC(=O)N(c2ccc3c(c2)OCCO3)C1` (stereo not given), the AC50 under setting [1] was 0.0891 µM [falling, full curve, poor fit].

Regarding `Cc1ccc(N2C(=O)CSC2c2cccnc2)c(Cl)c1` (stereo not given), the AC50 under setting [1] is 22.4 µM [falling, single point].

Consider `Cc1ccc(NC(=O)c2sccc2C)nc1`, for which the AC50 under setting [1] was 8.91 µM [falling, partial curve, poor fit].

As to `COc1cc(/C=C(/C#N)C(=O)Nc2ccccc2)c(Br)cc1OCc1ccc(C(=O)O)cc1`, the AC50 under setting [1] was 0.316 µM [falling, full curve].

Regarding `Cc1c(-c2ccc(F)cc2)nc(N)c(C#N)c1-c1cccs1`, the half-maximal activity concentration (AC50) under setting [1] was 17.8 µM [rising, partial curve, poor fit].

For the compound `Cc1c(C#N)c2ccccc2n1CC(=O)NC(C)c1ccccc1` (stereo not given), the AC50 under setting [1] is 5.8 µM [rising, single point].

For the compound `COc1cc(C2C3=C(Nc4ncnn42)c2ccccc2CC3)cc(OC)c1OC` (stereo not given), the AC50 under setting [1] was 7.94 µM [rising, partial curve] and the AC50 under setting [2] is 2.51 µM [falling, full curve].

Consider `CN1CCN(NC(=O)CN2C(=O)/C(=C/c3ccccc3Cl)SC2=S)CC1`, for which, under setting [1], the AC50 is 16.4 µM [rising, partial curve, poor fit].

Consider `O=C(O)CCCC(=O)NCCc1ccncc1`, for which the AC50 under setting [1] was 1.64 µM [rising, partial curve, poor fit].

On to `CCOc1ccc(S(=O)(=O)Oc2ccc3ccccc3c2)cc1`, for which the AC50 under setting [1] was 29.1 µM [rising, single point].

`CCOC(=O)c1c(-c2cccc(C)c2)csc1NC(=O)C1CC=CCC1C(=O)O` (stereo not given): the AC50 under setting [1] was 35.5 µM [falling, single point].

Take `COc1ccc(OC)c(NC(=O)Cn2cc(C(=O)c3ccco3)c3ccccc32)c1`: under setting [1], the AC50 was 20.6 µM [falling, single point].

As to `Cc1ccc(S(=O)(=O)N2CCCCC2)cc1NC(=O)Cn1cc(C(F)(F)F)ccc1=O`, the AC50 under setting [1] is 29.1 µM [falling, single point].

In the case of `CCc1ccc2oc(-c3ccc(OC)cc3)cc(=Nc3c(C)n(C)n(-c4ccccc4)c3=O)c2c1`, under setting [1], the AC50 is 35.5 µM [falling, single point].

Regarding `C/C(=N\NC(=O)c1cccnc1)c1cc(C)oc1C`, the AC50 under setting [1] was 18.4 µM [falling, single point].

For `COc1ccc(CC(=O)OCN2C(=O)c3ccccc3C2=O)cc1OC`, the half-maximal activity concentration (AC50) under setting [1] is 14.1 µM [rising, partial curve, poor fit].

Take `O=C(OCc1ccc(Cl)cc1)c1cccnc1Cl`: under setting [1], the AC50 is 35.5 µM [rising, single point].

Consider `CCNC(=O)c1ccc(CSc2ccc(Cl)cc2)cc1`, for which, under setting [1], the AC50 is 29.1 µM [rising, single point].

Regarding `O=C(Nc1ccccc1N1CCCCC1)C1CC(=O)N(c2ccccc2F)C1` (stereo not given), the AC50 under setting [1] was 18.4 µM [rising, single point].

As for `COc1cc(/C=N/NC(=O)c2cncc(Br)c2)ccc1OC(=O)c1ccc2c(c1)OCO2`, the AC50 under setting [1] was 14.1 µM [falling, single point].

With `Cc1nc(-c2ccc(NC(=O)C3CC3)cc2)cs1`, under setting [1], the AC50 is 8.91 µM [falling, partial curve].

Turning to `O=C(Nc1ccc(Cc2ccncc2)cc1)c1ccc(N2CCOCC2)c([N+](=O)[O-])c1`, the AC50 under setting [1] is 22.4 µM [falling, single point].

Take `CCOc1ccc(NC(=O)c2ccc3nccnc3c2)cc1`: the AC50 under setting [1] is 20.6 µM [falling, single point].

`O=C(COC(=O)c1cccc2ccccc12)NCCCc1ccccc1`: under setting [1], the AC50 is 20.6 µM [rising, single point].

As for `Cc1cccc(CSc2nc3ccncc3n2CC(=O)Nc2cc(C)cc(C)c2)c1`, under setting [1], the AC50 was 11.6 µM [falling, partial curve].

On to `COC(=O)C1=C(C)NC(C)=C(C(=O)OC)C1/C=C/c1ccccc1`, for which the AC50 under setting [2] is 11.6 µM [falling, partial curve].

For the compound `CN1C(=O)CSc2ccc(NC(=O)NCc3ccccc3)cc21`, the AC50 under setting [1] is 2.24 µM [falling, partial curve, poor fit].

Take `Oc1c(Br)cc(Br)cc1CNc1ccc(F)cc1`: the AC50 under setting [1] was 10 µM [falling, partial curve, poor fit].
